PubChem BioAssay AID686938 | Drosophila RNAi Screening Center | 2013
In all, the deposit lists about 23,000 reagents; below is an unselected part of those that have a named target and a result. In the full data, 75 (0.33%) are marked active. 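Raw plate signals without normalisation; calls rest on plate z-scores that were not deposited; ratio present for only 364 wells.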 A plus sign joins genes that one reagent is predicted to hit. No sequences are given here. The record does not give: the dose of the treatment.

Test: 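Looking for CRAC channel components and the factors controlling them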 (primary screen)
Cells: Drosophila S2R+ cells
Knock-down reagent: long dsRNA against Drosophila genes, about 0.25 µg dsRNA per well, roughly 10,000 cells
Duration: 5 days of knock-down before the calcium assay
Challenge: thapsigargin (SERCA pump blocker) to empty calcium stores; entry signal taken 4 min after adding it
Measurement: 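Duplicate raw fluo-4 intensities per well from a plate reader, at rest and four minutes after thapsigargin emptied calcium stores; entry-to-rest ratio filled for only some wells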
Scale: calcium entry signal: higher = stronger calcium signal after store depletion; entry to resting ratio: higher = more calcium entry relative to resting level; resting calcium signal: higher = higher resting calcium signal
Rule for the call: 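Hit if the duplicate-averaged plate z-score for entry over resting signal is under −3; wells with weak total dye signal (Fmax z < −2) or more than 5 off-targets removed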
Meaning of the calls: active = strongly reduced calcium entry; inactive = no strong reduction

| gene knocked down | amplicon | calcium entry signal, replicate 1 (fluorescence units) | calcium entry signal, replicate 2 (fluorescence units) | entry to resting ratio | resting calcium signal, replicate 1 (fluorescence units) | resting calcium signal, replicate 2 (fluorescence units) | Call |
| --- | --- | --- | --- | --- | --- | --- | --- |
| CG10154 (GeneID 39509) | DRSC09707 | 3.19e7 | 3.89e7 | – | 1.63e7 | 1.86e7 | inactive |
| Ilp3 (GeneID 39151) | DRSC10168 | 3.52e7 | 5.00e7 | – | 1.80e7 | 2.15e7 | inactive |
| CG18622 (GeneID 42044) | DRSC15360 | 2.93e7 | 4.58e7 | – | 1.57e7 | 7.02e7 | inactive |
| psh (GeneID 32832) | DRSC19990 | 4.19e7 | 3.12e7 | – | 2.18e7 | 1.50e7 | inactive |
| CG4115 (GeneID 41499) | DRSC15545 | 3.74e7 | 3.36e7 | – | 1.84e7 | 1.88e7 | inactive |
| Syx6 (GeneID 40373) | DRSC07032 | 2.58e7 | 2.72e7 | – | 1.18e7 | 1.28e7 | inactive |
| CG9386 (GeneID 41148) | DRSC16485 | 3.10e7 | 3.64e7 | – | 1.50e7 | 1.77e7 | inactive |
| Mst36Fa (GeneID 318948) | DRSC21564 | 3.34e7 | 3.97e7 | – | 2.09e7 | 1.75e7 | inactive |
| Arl4 (GeneID 43771) | DRSC17156 | 4.99e7 | 5.65e7 | 2 | 2.44e7 | 2.18e7 | inactive |
| Cp16 (GeneID 39001) | DRSC11119 | 3.17e7 | 4.03e7 | – | 1.52e7 | 1.94e7 | inactive |
| l(1)G0020 (GeneID 31811) | DRSC18198 | 3.42e7 | 2.89e7 | – | 1.75e7 | 1.45e7 | inactive |
| CG4271 (GeneID 33410) | DRSC00649 | 2.44e7 | 3.11e7 | – | 1.14e7 | 1.29e7 | inactive |
| Rh7 (GeneID 39389) | DRSC10529 | 5.23e7 | 4.28e7 | – | 3.63e7 | 1.80e7 | inactive |
| CG2736 (GeneID 37998) | DRSC04314 | 3.78e7 | – | – | 1.79e7 | – | inactive |
| CG13775 (GeneID 33975) | DRSC02279 | 3.12e7 | 2.75e7 | – | 1.46e7 | 1.20e7 | inactive |
| SrpRbeta (GeneID 47283) | DRSC21668 | 4.28e7 | 3.96e7 | – | 2.35e7 | 1.81e7 | inactive |
| CG12655 (GeneID 33004) | DRSC20678 | 4.79e7 | 5.15e7 | – | 2.43e7 | 2.53e7 | inactive |
| Dronc (GeneID 39173) | DRSC11231 | 5.38e7 | 3.35e7 | – | 3.06e7 | 1.48e7 | inactive |
| fog (GeneID 33148) | DRSC20646 | 3.43e7 | 4.00e7 | – | 1.60e7 | 1.60e7 | inactive |

Ordered by “resting calcium signal, replicate 1 (fluorescence units)” (lowest first): 4 of the entries above
| gene knocked down | amplicon | calcium entry signal, replicate 1 (fluorescence units) | calcium entry signal, replicate 2 (fluorescence units) | entry to resting ratio | resting calcium signal, replicate 1 (fluorescence units) | resting calcium signal, replicate 2 (fluorescence units) | Call |
| --- | --- | --- | --- | --- | --- | --- | --- |
| Syx6 (GeneID 40373) | DRSC07032 | 2.58e7 | 2.72e7 | – | 1.18e7 | 1.28e7 | inactive |
| CG9386 (GeneID 41148) | DRSC16485 | 3.10e7 | 3.64e7 | – | 1.50e7 | 1.77e7 | inactive |
| Mst36Fa (GeneID 318948) | DRSC21564 | 3.34e7 | 3.97e7 | – | 2.09e7 | 1.75e7 | inactive |
| Arl4 (GeneID 43771) | DRSC17156 | 4.99e7 | 5.65e7 | 2 | 2.44e7 | 2.18e7 | inactive |

The listing continues.
| gene knocked down | amplicon | calcium entry signal, replicate 1 (fluorescence units) | calcium entry signal, replicate 2 (fluorescence units) | entry to resting ratio | resting calcium signal, replicate 1 (fluorescence units) | resting calcium signal, replicate 2 (fluorescence units) | Call |
| --- | --- | --- | --- | --- | --- | --- | --- |
| Wnt10 (GeneID 34011) | DRSC00990 | 1.72e7 | 4.13e7 | – | 1.47e7 | 1.65e7 | inactive |
| Wnt10 (GeneID 34011) | DRSC02797 | 4.14e7 | 4.28e7 | – | 1.92e7 | 1.84e7 | inactive |
| Kdm4B (GeneID 318918) | DRSC06862 | 4.40e7 | 3.35e7 | – | 2.01e7 | 1.58e7 | inactive |
| Rpn12R (GeneID 2768973) | DRSC09842 | 5.08e7 | 6.35e7 | – | 2.24e7 | 2.30e7 | inactive |
| lncRNA:CR40629 (GeneID 10178881) | DRSC20959 | 2.65e7 | 2.93e7 | – | 1.35e7 | 1.29e7 | inactive |
| CG14259 (GeneID 43261) | DRSC14754 | 3.59e7 | 4.78e7 | – | 1.88e7 | 2.13e7 | inactive |
| Dif (GeneID 35045) | DRSC03316 | 4.38e7 | 3.31e7 | – | 2.07e7 | 1.47e7 | inactive |
| Tdc2 (GeneID 246620) | DRSC04999 | 4.35e7 | 5.49e7 | – | 2.21e7 | 2.33e7 | inactive |
| CG14722 (GeneID 41419) | DRSC14944 | 3.03e7 | 3.46e7 | – | 1.33e7 | 1.70e7 | inactive |
| lute (GeneID 42089) | DRSC14812 | 3.26e7 | 5.18e7 | – | 1.59e7 | 5.17e7 | inactive |
| lute (GeneID 42089) | DRSC15769 | 3.54e7 | 3.54e7 | – | 1.83e7 | 1.69e7 | inactive |
| CG15011 (GeneID 38518) | DRSC08464 | 6.45e7 | 3.66e7 | – | 4.12e7 | 1.58e7 | inactive |
| L (retired record) (GeneID 44831) | DRSC05966 | 2.41e7 | 3.16e7 | – | 1.36e7 | 1.64e7 | inactive |
| L (retired record) (GeneID 44831) | DRSC05967 | 2.43e7 | 4.00e7 | – | 1.38e7 | 1.76e7 | inactive |
| CLIP-190 (GeneID 35042) | DRSC03283 | 3.73e7 | – | – | 1.92e7 | – | inactive |
| Wdfy2 (GeneID 34425) | DRSC02822 | 3.85e7 | – | – | 2.13e7 | – | inactive |
| udt (GeneID 42809) | DRSC14214 | 4.57e7 | 2.98e7 | – | 2.15e7 | 1.38e7 | inactive |
| CG14327 (GeneID 42118) | DRSC14806 | 3.12e7 | 5.55e7 | – | 1.73e7 | 5.99e7 | inactive |
| Mst57Da (GeneID 47954) | DRSC16744 | 6.00e7 | 3.13e7 | – | 2.48e7 | 1.31e7 | inactive |
| net (GeneID 45339) | DRSC00309 | 4.92e7 | 5.76e7 | – | 2.25e7 | 2.39e7 | inactive |
| BigH1 (GeneID 41780) | DRSC15491 | 2.87e7 | 3.86e7 | – | 1.31e7 | 1.73e7 | inactive |
| TpnC25D (GeneID 33752) | DRSC02965 | 3.33e7 | 4.41e7 | – | 1.65e7 | 2.06e7 | inactive |
| Ir11a (GeneID 32189) | DRSC19699 | 4.04e7 | 3.42e7 | – | 1.85e7 | 1.63e7 | inactive |
| ATPsynF (GeneID 37931) | DRSC04482 | 5.04e7 | – | – | 2.49e7 | – | inactive |
| GstD3 (GeneID 48336) | DRSC15571 | 3.05e7 | 3.01e7 | – | 1.81e7 | 1.69e7 | inactive |
| CycK (GeneID 49816) | DRSC03714 | 3.12e7 | – | – | 1.79e7 | – | inactive |
| trbd (GeneID 41179) | DRSC16494 | 3.39e7 | 3.80e7 | – | 1.57e7 | 1.92e7 | inactive |
| CG5273 (GeneID 31021) | DRSC18612 | 4.87e7 | 5.27e7 | 2.1 | 2.29e7 | 2.13e7 | inactive |
| Cyp6a8 (GeneID 36666) | DRSC07384 | 3.97e7 | 3.86e7 | – | 1.94e7 | 1.82e7 | inactive |
| CG6659 (GeneID 32854) | DRSC20003 | 3.59e7 | 2.76e7 | – | 1.66e7 | 1.43e7 | inactive |
| uri (GeneID 37924) | DRSC04111 | 3.47e7 | – | – | 1.90e7 | – | inactive |
| E5 (GeneID 45396) | DRSC13000 | 4.34e7 | 3.86e7 | – | 2.21e7 | 1.60e7 | inactive |
| E5 (GeneID 45396) | DRSC16585 | 3.10e7 | 3.91e7 | – | 1.89e7 | 8.33e7 | inactive |
| E5 (GeneID 45396) | DRSC23157 | 3.16e7 | 3.13e7 | – | 1.51e7 | 1.51e7 | inactive |
| sxe2 (GeneID 41954) | DRSC15692 | 2.82e7 | 2.45e7 | – | 1.37e7 | 1.20e7 | inactive |
| CG1983 (GeneID 43588) | DRSC15410 | 2.88e7 | 2.88e7 | – | 1.61e7 | 1.37e7 | inactive |
| CG14610 + asRNA:CR42738 | DRSC12554 | 4.30e7 | 4.44e7 | – | 2.13e7 | 2.14e7 | inactive |
| CG31898 (GeneID 319012) | DRSC01019 | 4.33e7 | 4.78e7 | – | 2.19e7 | 2.27e7 | inactive |
| CG16956 (GeneID 34760) | DRSC02544 | 3.35e7 | 2.15e7 | – | 1.45e7 | 1.06e7 | inactive |
